These are yes or no findings as the source states them, for the method shown. Binding seen in cells or lysates may run through a third protein. Here binding means that the protein was enriched with, or labelled near, the bait; the list need not be complete.
Target: PCF11 (termination factor), endogenous (human (endogenous in HeLa)) (UniProt O94913)
Assay: affinity purification with mass spectrometry; PCF11-interacting proteins from HeLa cells analysed by MS

Chains of the proteins cited; added tags and fusions are not shown.
UniProt O94913: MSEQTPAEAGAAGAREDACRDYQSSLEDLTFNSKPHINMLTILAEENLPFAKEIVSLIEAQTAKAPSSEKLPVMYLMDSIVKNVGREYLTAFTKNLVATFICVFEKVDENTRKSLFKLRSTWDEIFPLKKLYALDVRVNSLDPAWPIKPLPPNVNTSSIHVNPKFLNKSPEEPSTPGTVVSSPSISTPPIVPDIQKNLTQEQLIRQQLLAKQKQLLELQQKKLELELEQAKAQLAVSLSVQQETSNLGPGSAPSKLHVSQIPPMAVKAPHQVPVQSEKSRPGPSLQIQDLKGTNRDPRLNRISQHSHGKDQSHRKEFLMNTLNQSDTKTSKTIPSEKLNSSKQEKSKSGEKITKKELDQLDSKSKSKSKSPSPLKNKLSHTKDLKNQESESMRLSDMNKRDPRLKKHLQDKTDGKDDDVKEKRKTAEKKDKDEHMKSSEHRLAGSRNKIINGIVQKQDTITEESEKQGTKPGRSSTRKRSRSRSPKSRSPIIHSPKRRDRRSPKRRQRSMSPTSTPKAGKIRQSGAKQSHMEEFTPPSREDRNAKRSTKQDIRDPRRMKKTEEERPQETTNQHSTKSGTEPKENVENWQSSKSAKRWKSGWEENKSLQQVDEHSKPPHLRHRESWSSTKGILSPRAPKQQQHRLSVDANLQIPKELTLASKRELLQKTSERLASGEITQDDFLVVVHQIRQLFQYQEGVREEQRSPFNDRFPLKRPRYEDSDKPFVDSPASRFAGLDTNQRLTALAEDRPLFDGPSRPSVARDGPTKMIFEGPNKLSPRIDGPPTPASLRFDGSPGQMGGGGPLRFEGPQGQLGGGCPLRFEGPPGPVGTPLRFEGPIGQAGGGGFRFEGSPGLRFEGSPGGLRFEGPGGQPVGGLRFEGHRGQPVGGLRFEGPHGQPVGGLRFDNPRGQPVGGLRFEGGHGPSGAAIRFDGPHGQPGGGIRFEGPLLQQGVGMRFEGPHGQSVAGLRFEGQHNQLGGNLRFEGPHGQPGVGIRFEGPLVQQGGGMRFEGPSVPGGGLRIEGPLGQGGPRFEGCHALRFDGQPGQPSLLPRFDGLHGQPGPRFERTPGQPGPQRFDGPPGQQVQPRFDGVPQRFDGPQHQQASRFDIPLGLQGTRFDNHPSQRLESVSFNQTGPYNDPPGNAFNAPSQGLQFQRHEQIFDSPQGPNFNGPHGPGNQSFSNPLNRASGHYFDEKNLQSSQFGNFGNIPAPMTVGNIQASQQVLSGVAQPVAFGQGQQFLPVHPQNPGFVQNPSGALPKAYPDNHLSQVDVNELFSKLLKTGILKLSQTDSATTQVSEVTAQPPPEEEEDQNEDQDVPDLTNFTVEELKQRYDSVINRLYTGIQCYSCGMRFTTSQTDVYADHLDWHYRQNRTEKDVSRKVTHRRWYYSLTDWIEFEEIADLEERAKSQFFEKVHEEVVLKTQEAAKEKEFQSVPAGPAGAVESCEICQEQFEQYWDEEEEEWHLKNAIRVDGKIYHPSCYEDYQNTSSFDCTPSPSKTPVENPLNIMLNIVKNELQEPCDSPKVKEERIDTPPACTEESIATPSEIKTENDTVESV

binding: binds
Substance: WNK1 (with no lysine [K] 1) kinase, endogenous (from UniProt Q9H4A3-1 1-2382) (enzyme)
